PubChem BioAssay AID504764 – Drosophila RNAi Screening Center – 2011
Purpose: 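Knock-downs that raise or lower a Notch target reporter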 (primary screen). Cells: Drosophila Kc167 cells. Reagents: long dsRNA against Drosophila genes. Timing: about 5 days (4 days dsRNA, then 24 h after transfection). Challenge: transfection of constitutively active membrane-tethered Notch lacking the extracellular domain, read 24 h later. Measured: 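Light from a Notch-responsive E(spl)m3 luciferase reporter under active Notch, with control-promoter and no-Notch reporter wells to normalise; raw counts from paired wells a and b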. Scale: induced reporter light, run 1, well a and induced reporter light, run 1, well b: higher = more light from the Notch target reporter with active Notch; control promoter light, run 1, well a and control promoter light, run 1, well b: higher = more light from the viral control promoter (cell number, transfection, viability); uninduced reporter light, run 1, well a: higher = more light from the Notch target reporter without active Notch. Hit rule: 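Wells with low control signal or poorly matching duplicates excluded; duplicates averaged; per source plate, z beyond ±2 for induced/control log2 ratio or beyond ±1.8 for induced/uninduced marks a hit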. Calls: active = modifier hit (raised or lowered Notch signal); inactive = not a hit.
In all, the deposit lists about 22,000 reagents; below is an unselected part of those with a known target gene and a result. In the full data, 403 (1.9%) are marked active. 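Unnormalised raw counts per well; ratio z-scores behind the hit calls and whether each hit raises or lowers signal are not deposited.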 A plus sign joins genes that one reagent is predicted to hit. The record does not give: the amount of reagent.

Target gene | DRSC id | induced reporter light, run 1, well a | induced reporter light, run 1, well b | control promoter light, run 1, well a | control promoter light, run 1, well b | uninduced reporter light, run 1, well a | call
hpRNA:CR18854 (hairpin RNA:CR18854) | DRSC02702 | 1.05e5 | 1.19e5 | 83700 | 1.07e5 | 17070 | inactive
CROT (Carnitine O-octanoyltransferase) | DRSC14518 | 1.62e5 | 1.35e5 | 1.94e5 | 1.94e5 | 12535 | inactive
CROT (Carnitine O-octanoyltransferase) | DRSC14519 | 1.25e5 | 1.23e5 | 1.52e5 | 1.36e5 | 11610 | inactive
CG14105 | DRSC10107 | 1.68e5 | 1.43e5 | 2.19e5 | 1.94e5 | 10150 | inactive
Mctp (Multiple C2 domain and transmembrane region protein) | DRSC06510 | 69870 | 70340 | 95095 | 97525 | 7060 | inactive
CG13689 | DRSC00358 | 1.02e5 | 1.07e5 | 1.11e5 | 50375 | 8070 | inactive
Mst87F (Male-specific RNA 87F) | DRSC16747 | 1.93e5 | 1.74e5 | 1.82e5 | 1.88e5 | 15225 | inactive
brv1 (brivido-1) | DRSC11076 | 1.38e5 | 1.14e5 | 1.12e5 | 1.21e5 | 10225 | inactive
pie (pineapple eye) | DRSC03590 | 1.91e5 | 1.88e5 | 1.80e5 | 2.03e5 | 15238 | inactive
HDAC1 (Histone deacetylase 1) | DRSC08696 | 1.40e5 | 1.11e5 | 53165 | 30045 | 11210 | active
Su(dx) (Suppressor of deltex) | DRSC00791 | 2.06e5 | 1.78e5 | 1.13e5 | 1.14e5 | 20545 | active
Acbp1 (Acyl-CoA binding protein 1) | DRSC03093 | 1.61e5 | 1.90e5 | 1.10e5 | 1.40e5 | 24665 | inactive
CG5114 | DRSC10482 | 1.50e5 | 1.64e5 | 1.42e5 | 1.56e5 | 13565 | inactive
Corin | DRSC06818 | 2.17e5 | 1.64e5 | 2.32e5 | 2.13e5 | 16090 | inactive
salt (salty dog) | DRSC15427 | 2.44e5 | 2.12e5 | 3.04e5 | 2.77e5 | 14605 | inactive
CG15882 | DRSC19735 | 79050 | 79845 | 97565 | 1.00e5 | 9355 | inactive
CG4363 | DRSC04465 | 56880 | 52615 | 46450 | 55860 | 3028 | inactive
Iswi (Imitation SWI) | DRSC07446 | 1.02e5 | 78430 | 1.40e5 | 99140 | 7530 | inactive
Pgcl (Pepsinogen C-like) | DRSC18815 | 1.29e5 | 1.58e5 | 2.31e5 | 3.10e5 | 13442 | inactive
CG44422 | DRSC18885 | 1.03e5 | 1.06e5 | 1.36e5 | 1.35e5 | 6085 | inactive
CG44422 | DRSC19380 | 64770 | 77025 | 99395 | 82620 | 9715 | inactive
CG44422 | DRSC19480 | 67345 | 58295 | 1.16e5 | 1.42e5 | 8085 | inactive
Ip259 (Intronic Protein 259) | DRSC03352 | 2.00e5 | 2.12e5 | 1.47e5 | 1.97e5 | 14475 | inactive
bb8 (big bubble 8) | DRSC15578 | 1.63e5 | 2.03e5 | 2.36e5 | 2.35e5 | 14010 | inactive
CG14014 | DRSC02345 | 1.61e5 | 1.76e5 | 2.12e5 | 1.77e5 | 11830 | inactive
LManIV (Lysosomal alpha-mannosidase IV) | DRSC03222 | 1.10e5 | 1.19e5 | 95715 | 1.02e5 | 20670 | inactive
CG7824 | DRSC16321 | 1.43e5 | 1.48e5 | 1.88e5 | 1.69e5 | 12950 | inactive
CG43736 + CG33692 (retired record) | DRSC18370 | 1.37e5 | 1.35e5 | 3.32e5 | 3.37e5 | 10742 | active
CG43736 + CG33692 (retired record) | DRSC18371 | 1.32e5 | 1.41e5 | 2.49e5 | 2.49e5 | 10625 | inactive
ITP (Ion transport peptide) | DRSC04222 | 1.52e5 | 1.18e5 | 1.44e5 | 1.50e5 | 9450 | inactive
CG9436 | DRSC05005 | 1.01e5 | 87335 | 68865 | 73515 | 5670 | inactive
meru | DRSC09400 | 2.06e5 | 1.59e5 | 2.37e5 | 2.32e5 | 16905 | inactive
meru | DRSC09899 | 1.84e5 | 1.69e5 | 1.34e5 | 1.31e5 | 5365 | inactive
meru | DRSC10215 | 1.90e5 | 2.18e5 | 1.87e5 | 1.68e5 | 8915 | inactive
Vps37B (Vacuolar protein sorting 37B) | DRSC12165 | 91810 | 1.08e5 | 99150 | 73045 | 7800 | inactive
CG13492 | DRSC04137 | 48080 | 65630 | 52765 | 58385 | 2880 | inactive

Continued; the last 6 above are carried over.
Target gene | DRSC id | induced reporter light, run 1, well a | induced reporter light, run 1, well b | control promoter light, run 1, well a | control promoter light, run 1, well b | uninduced reporter light, run 1, well a | call
CG9436 | DRSC05005 | 1.01e5 | 87335 | 68865 | 73515 | 5670 | inactive
meru | DRSC09400 | 2.06e5 | 1.59e5 | 2.37e5 | 2.32e5 | 16905 | inactive
meru | DRSC09899 | 1.84e5 | 1.69e5 | 1.34e5 | 1.31e5 | 5365 | inactive
meru | DRSC10215 | 1.90e5 | 2.18e5 | 1.87e5 | 1.68e5 | 8915 | inactive
Vps37B (Vacuolar protein sorting 37B) | DRSC12165 | 91810 | 1.08e5 | 99150 | 73045 | 7800 | inactive
CG13492 | DRSC04137 | 48080 | 65630 | 52765 | 58385 | 2880 | inactive
asf1 (anti-silencing factor 1) | DRSC11324 | 49120 | 54945 | 41405 | 43490 | 4810 | inactive
Manf (Mesencephalic astrocyte-derived neurotrophic factor) | DRSC14091 | 2.39e5 | 2.94e5 | 3.40e5 | 3.28e5 | 19385 | inactive
ry (rosy) | DRSC17048 | 1.28e5 | 1.24e5 | 87275 | 74540 | 7338 | inactive
kni (knirps) | DRSC11891 | 83610 | 54200 | 50500 | 52005 | 5642 | inactive
Agpat1 (1-Acylglycerol-3-phosphate O-acyltransferase 1) | DRSC19879 | 1.28e5 | 1.23e5 | 2.57e5 | 3.15e5 | 8530 | inactive
Agpat1 (1-Acylglycerol-3-phosphate O-acyltransferase 1) | DRSC19880 | 1.53e5 | 1.39e5 | 2.84e5 | 2.39e5 | 9190 | inactive
Tsp (Thrombospondin) | DRSC02144 | 1.33e5 | 1.41e5 | 1.83e5 | 1.83e5 | 15820 | inactive
Tsp (Thrombospondin) | DRSC02145 | 1.55e5 | 1.06e5 | 1.57e5 | 1.38e5 | 8182 | inactive
CG12118 | DRSC17813 | 2.07e5 | 2.08e5 | 2.36e5 | 2.45e5 | 14355 | inactive
CG14669 | DRSC12065 | 6840 | 4955 | 10215 | 9620 | 4065 | inactive
CG14669 | DRSC12067 | 1.83e5 | 1.66e5 | 1.50e5 | 1.24e5 | 13715 | inactive
CG14669 | DRSC12068 | 1.34e5 | 1.50e5 | 1.29e5 | 1.56e5 | 12080 | inactive
CG14669 | DRSC12255 | 98335 | 1.11e5 | 88220 | 68480 | 6915 | inactive
tei (teiresias) | DRSC07616 | 85035 | 96135 | 1.45e5 | 1.29e5 | 9510 | inactive
Cpr47Ea (Cuticular protein 47Ea) | DRSC07333 | 1.32e5 | 1.26e5 | 1.32e5 | 1.35e5 | 11845 | inactive
CG4627 | DRSC06873 | 86230 | 1.08e5 | 1.15e5 | 1.10e5 | 9640 | inactive
mop (myopic) | DRSC11065 | 1.15e5 | 1.16e5 | 90090 | 1.12e5 | 10182 | inactive
noc (no ocelli) | DRSC03580 | 1.76e5 | 1.82e5 | 1.46e5 | 1.26e5 | 15085 | inactive
LpR1 (Lipophorin receptor 1) | DRSC15665 | 2.07e5 | 2.47e5 | 2.33e5 | 2.70e5 | 14360 | inactive
LpR1 (Lipophorin receptor 1) | DRSC15669 | 1.80e5 | 1.80e5 | 1.96e5 | 1.61e5 | 11560 | inactive
LpR1 (Lipophorin receptor 1) | DRSC15670 | 1.43e5 | 1.72e5 | 1.99e5 | 1.75e5 | 11818 | inactive
Ten-a (Tenascin accessory) | DRSC18924 | 79255 | 74270 | 89105 | 66455 | 5440 | inactive
Ten-a (Tenascin accessory) | DRSC19496 | 5855 | 5875 | 13830 | 13005 | 2785 | inactive
Ten-a (Tenascin accessory) | DRSC19700 | 1.25e5 | 1.29e5 | 2.34e5 | 2.23e5 | 10055 | inactive
Ten-a (Tenascin accessory) | DRSC19793 | 1.04e5 | 1.11e5 | 2.06e5 | 1.87e5 | 8245 | inactive
Ten-a (Tenascin accessory) | DRSC19864 | 1.38e5 | 1.49e5 | 2.27e5 | 2.02e5 | 10270 | inactive
Ten-a (Tenascin accessory) | DRSC19865 | 1.02e5 | 1.03e5 | 1.97e5 | 1.81e5 | 7630 | inactive
Ten-a (Tenascin accessory) | DRSC20290 | 1.13e5 | 1.15e5 | 2.01e5 | 2.49e5 | 8655 | inactive
Ten-a (Tenascin accessory) | DRSC21461 | – | – | – | – | – | inactive
